# Experimental data: the supplement of paper PMC8728848
# The other results are listed elsewhere or left out.
# Tests used:
# Test in all cases: glycan array binding signal (z-score within array); higher = stronger binding
# Conditions in all cases: glycan notation: IUPAC condensed, linker removed
# Glc(b1-6)Glc = molecular target: Glc(b1-6)Glc
# How it was run: (§1)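 The binding signal is a Z-score computed within each array. Data were drawn from 3228 arrays in the Consortium for Functional Glycomics database, restricted to those with a known protein sequence. Scores were averaged over arrays of the same protein sequence at different concentrations or buffers, and over linkers, and negative values can be taken as non-binding.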
# GlcA(b1-3)Gal = molecular target: GlcA(b1-3)Gal
# How it was run: as §1
# GlcA(b1-3)GlcNAc = molecular target: GlcA(b1-3)GlcNAc
# How it was run: as §1
# GlcA(b1-6)Gal = molecular target: GlcA(b1-6)Gal
# How it was run: as §1
# [1] = molecular target: GlcA3S(b1-3)Gal(b1-4)GlcNAc(b1-2)Man
# How it was run: as §1
# [2] = molecular target: GlcA3S(b1-3)Gal(b1-4)GlcNAc(b1-3)Gal(b1-4)Glc
# How it was run: as §1
# [3] = molecular target: GlcNAc(a1-3)Gal(b1-4)GlcNAc
# How it was run: as §1
# [4] = molecular target: GlcNAc(a1-4)Gal(b1-3)GlcNAc
# How it was run: as §1
# [5] = molecular target: GlcNAc(a1-4)Gal(b1-4)GalNAc
# How it was run: as §1
# [6] = molecular target: GlcNAc(a1-4)Gal(b1-4)GlcNAc
# How it was run: as §1
# [7] = molecular target: GlcNAc(a1-4)Gal(b1-4)GlcNAc(b1-3)Gal(b1-4)Glc
# How it was run: as §1
# [8] = molecular target: GlcNAc(a1-4)Gal(b1-4)GlcNAc(b1-3)Gal(b1-4)GlcNAc
# How it was run: as §1
# [9] = molecular target: GlcNAc(a1-4)Gal(b1-4)GlcNAc(b1-3)Gal(b1-4)GlcNAc(b1-3)Gal(b1-4)GlcNAc
# How it was run: as §1
# [10] = molecular target: GlcNAc(a1-4)Gal(b1-4)GlcNAc(b1-3)Gal(b1-4)[Fuc(a1-3)]GlcNAc(b1-3)Gal(b1-4)[Fuc(a1-3)]GlcNAc
# How it was run: as §1
# [11] = molecular target: GlcNAc(a1-6)Gal(b1-4)GlcNAc
# How it was run: as §1
# [12] = molecular target: GlcNAc(b1-2)Gal(b1-3)GalNAc
# How it was run: as §1
# [13] = molecular target: GlcNAc(b1-2)Man(a1-3)[GlcNAc(b1-2)Man(a1-6)]Man(b1-4)GlcNAc(b1-4)GlcNAc
# How it was run: as §1
# [14] = molecular target: GlcNAc(b1-2)Man(a1-3)[GlcNAc(b1-2)Man(a1-6)]Man(b1-4)GlcNAc(b1-4)[Fuc(a1-6)]GlcNAc
# How it was run: as §1
# [15] = molecular target: GlcNAc(b1-2)Man(a1-3)[GlcNAc(b1-4)][GlcNAc(b1-2)Man(a1-6)]Man(b1-4)GlcNAc(b1-4)GlcNAc
# How it was run: as §1
# [16] = molecular target: GlcNAc(b1-2)Man(a1-3)[GlcNAc(b1-4)][GlcNAc(b1-2)Man(a1-6)]Man(b1-4)GlcNAc(b1-4)[Fuc(a1-6)]GlcNAc
# How it was run: as §1
# [17] = molecular target: GlcNAc(b1-2)[GlcNAc(b1-4)]Man(a1-3)[GlcNAc(b1-2)Man(a1-6)]Man(b1-4)GlcNAc(b1-4)GlcNAc
# How it was run: as §1
# [18] = molecular target: GlcNAc(b1-2)[GlcNAc(b1-4)]Man(a1-3)[GlcNAc(b1-4)][GlcNAc(b1-2)Man(a1-6)]Man(b1-4)GlcNAc(b1-4)GlcNAc
# How it was run: as §1
# [19] = molecular target: GlcNAc(b1-2)[GlcNAc(b1-4)]Man(a1-3)[GlcNAc(b1-4)][GlcNAc(b1-2)[GlcNAc(b1-6)]Man(a1-6)]Man(b1-4)GlcNAc(b1-4)GlcNAc
# How it was run: as §1
# [20] = molecular target: GlcNAc(b1-2)[GlcNAc(b1-4)]Man(a1-3)[GlcNAc(b1-4)][GlcNAc(b1-2)[GlcNAc(b1-6)]Man(a1-6)]Man(b1-4)GlcNAc(b1-4)[Fuc(a1-6)]GlcNAc
# How it was run: as §1
# [21] = molecular target: GlcNAc(b1-2)[GlcNAc(b1-6)]Man(a1-6)[GlcNAc(b1-2)Man(a1-3)]Man(b1-4)GlcNAc(b1-4)GlcNAc
# How it was run: as §1
# [22] = molecular target: GlcNAc(b1-2)[GlcNAc(b1-6)]Man(a1-6)[GlcNAc(b1-2)Man(a1-3)]Man(b1-4)GlcNAc(b1-4)[Fuc(a1-6)]GlcNAc
# How it was run: as §1
# [23] = molecular target: GlcNAc(b1-2)[GlcNAc(b1-6)]Man(a1-6)[GlcNAc(b1-4)][GlcNAc(b1-2)Man(a1-3)]Man(b1-4)GlcNAc(b1-4)GlcNAc
# How it was run: as §1
# GlcNAc(b1-3)Fuc = molecular target: GlcNAc(b1-3)Fuc
# How it was run: as §1
# GlcNAc(b1-3)Gal = molecular target: GlcNAc(b1-3)Gal
# How it was run: as §1
# [24] = molecular target: GlcNAc(b1-3)Gal(b1-3)GalNAc
# How it was run: as §1
# GlcNAc(b1-3)Gal(b1-4)Glc = molecular target: GlcNAc(b1-3)Gal(b1-4)Glc
# How it was run: as §1
# [25] = molecular target: GlcNAc(b1-3)Gal(b1-4)GlcNAc
# How it was run: as §1
# [26] = molecular target: GlcNAc(b1-3)Gal(b1-4)GlcNAc(b1-2)Man(a1-3)[GlcNAc(b1-3)Gal(b1-4)GlcNAc(b1-2)Man(a1-6)]Man(b1-4)GlcNAc(b1-4)GlcNAc
# How it was run: as §1
# [27] = molecular target: GlcNAc(b1-3)Gal(b1-4)GlcNAc(b1-2)Man(a1-3)[GlcNAc(b1-3)Gal(b1-4)GlcNAc(b1-2)Man(a1-6)]Man(b1-4)GlcNAc(b1-4)[Fuc(a1-6)]GlcNAc
# How it was run: as §1
# [28] = molecular target: GlcNAc(b1-3)Gal(b1-4)GlcNAc(b1-2)[GlcNAc(b1-3)Gal(b1-4)GlcNAc(b1-6)]Man(a1-6)[GlcNAc(b1-3)Gal(b1-4)GlcNAc(b1-2)Man(a1-3)]Man(b1-4)GlcNAc(b1-4)GlcNAc
# How it was run: as §1
# [29] = molecular target: GlcNAc(b1-3)Gal(b1-4)GlcNAc(b1-3)Gal(b1-4)GlcNAc
# How it was run: as §1
# [30] = molecular target: GlcNAc(b1-3)Gal(b1-4)GlcNAc(b1-3)Gal(b1-4)GlcNAc(b1-2)Man(a1-3)[GlcNAc(b1-3)Gal(b1-4)GlcNAc(b1-3)Gal(b1-4)GlcNAc(b1-2)Man(a1-6)]Man(b1-4)GlcNAc(b1-4)GlcNAc
# How it was run: as §1
binder,measurement,setting,value
"Clec18Av1 (Homo sapiens), A5D8T8 (protein) MLHPETSPGRGHLLAVLLALLGTAWAEVWPPQLQEQAPMAGALNRKESFLLLSLHNRLRSWVQPPAADMRRLDWSDSLAQLAQARAALCGTPTPSLASGLWRTLQVGWNMQLLPAGLVSFVEVVSLWFAEGQRYSHAAGECARNATCTHYTQLVWATSSQLGCGRHLCSAGQAAIEAFVCAYSPRGNWEVNGKTIVPYKKGAWCSLCTASVSGCFKAWDHAGGLCEVPRNPCRMSCQNHGRLNISTCHCHCPPGYTGRYCQVRCSLQCVHGRFREEECSCVCDIGYGGAQCATKVHFPFHTCDLRIDGDCFMVSSEADTYYRARMKCQRKGGVLAQIKSQKVQDILAFYLGRLETTNEVIDSDFETRNFWIGLTYKTAKDSFRWATGEHQAFTSFAFGQPDNHGFGNCVELQASAAFNWNDQRCKTRNRYICQFAQEHISRWGPGS",glycan array binding signal (z-score),Glc(b1-6)Glc,-0.655
same,glycan array binding signal (z-score),GlcA(b1-3)Gal,-0.838
same,glycan array binding signal (z-score),GlcA(b1-3)GlcNAc,-0.686
same,glycan array binding signal (z-score),GlcA(b1-6)Gal,-0.029
same,glycan array binding signal (z-score),[1],-0.197
same,glycan array binding signal (z-score),[2],-0.835
same,glycan array binding signal (z-score),[3],-0.838
same,glycan array binding signal (z-score),[4],1.74
same,glycan array binding signal (z-score),[5],-0.75
same,glycan array binding signal (z-score),[6],-0.754
same,glycan array binding signal (z-score),[7],-0.356
same,glycan array binding signal (z-score),[8],-0.749
same,glycan array binding signal (z-score),[9],-0.854
same,glycan array binding signal (z-score),[10],4.79
same,glycan array binding signal (z-score),[11],1.9
same,glycan array binding signal (z-score),[12],-0.821
same,glycan array binding signal (z-score),[13],-0.707
same,glycan array binding signal (z-score),[14],3.54
same,glycan array binding signal (z-score),[15],-0.84
same,glycan array binding signal (z-score),[16],-0.852
same,glycan array binding signal (z-score),[17],-0.871
same,glycan array binding signal (z-score),[18],-0.842
same,glycan array binding signal (z-score),[19],-0.821
same,glycan array binding signal (z-score),[20],-0.868
same,glycan array binding signal (z-score),[21],-0.432
same,glycan array binding signal (z-score),[22],-0.853
same,glycan array binding signal (z-score),[23],-0.855
same,glycan array binding signal (z-score),GlcNAc(b1-3)Fuc,-0.838
same,glycan array binding signal (z-score),GlcNAc(b1-3)Gal,-0.851
same,glycan array binding signal (z-score),[24],-0.702
same,glycan array binding signal (z-score),GlcNAc(b1-3)Gal(b1-4)Glc,-0.676
same,glycan array binding signal (z-score),[25],-0.811
same,glycan array binding signal (z-score),[26],1.53
same,glycan array binding signal (z-score),[27],0.797
same,glycan array binding signal (z-score),[28],2.73
same,glycan array binding signal (z-score),[29],-0.861
same,glycan array binding signal (z-score),[30],-0.385
